Data from article PMC9377071.
No constants are given. Whether binding was seen depends on the method and setting. In cells and extracts the contact can be indirect. Some results given as binding are weak or reduced against the parent protein; the word gives no strength.

T1: RIPK1 (mouse (endogenous in HT22)), Q60855
T1 chain: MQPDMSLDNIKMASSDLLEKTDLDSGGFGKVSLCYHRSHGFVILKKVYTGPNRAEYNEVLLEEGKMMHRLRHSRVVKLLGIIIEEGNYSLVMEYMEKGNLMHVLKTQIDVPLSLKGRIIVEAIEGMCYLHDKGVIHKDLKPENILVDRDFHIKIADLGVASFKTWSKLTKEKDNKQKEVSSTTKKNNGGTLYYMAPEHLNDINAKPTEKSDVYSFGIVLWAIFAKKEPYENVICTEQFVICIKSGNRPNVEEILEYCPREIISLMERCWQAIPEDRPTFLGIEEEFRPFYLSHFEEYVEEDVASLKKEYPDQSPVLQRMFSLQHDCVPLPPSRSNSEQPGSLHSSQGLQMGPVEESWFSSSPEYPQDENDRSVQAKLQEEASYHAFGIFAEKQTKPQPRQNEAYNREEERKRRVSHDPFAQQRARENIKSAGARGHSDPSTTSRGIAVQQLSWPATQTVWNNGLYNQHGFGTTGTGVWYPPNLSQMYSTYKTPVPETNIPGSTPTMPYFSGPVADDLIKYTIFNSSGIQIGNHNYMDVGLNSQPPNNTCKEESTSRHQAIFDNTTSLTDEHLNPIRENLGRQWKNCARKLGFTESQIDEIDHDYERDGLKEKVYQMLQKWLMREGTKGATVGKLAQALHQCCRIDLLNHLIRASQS

T2: RIPK1 (mouse (endogenous in HT22)) (UniProt Q60855)
T2 sequence: T1 chain

B1: RIPK3, Q9QZL0 1-486 (protein)
chain: MSSVKLWPTGASAVPLVSREELKKLEFVGKGGFGVVFRAHHRTWNHDVAVKIVNSKKISWEVKAMVNLRNENVLLLLGVTEDLQWDFVSGQALVTRFMENGSLAGLLQPECPRPWPLLCRLLQEVVLGMCYLHSLNPPLLHRDLKPSNILLDPELHAKLADFGLSTFQGGSQSGSGSGSGSRDSGGTLAYLDPELLFDVNLKASKASDVYSFGILVWAVLAGREAELVDKTSLIRETVCDRQSRPPLTELPPGSPETPGLEKLKELMIHCWGSQSENRPSFQDCEPKTNEVYNLVKDKVDAAVSEVKHYLSQHRSSGRNLSAREPSQRGTEMDCPRETMVSKMLDRLHLEEPSGPVPGKCPERQAQDTSVGPATPARTSSDPVAGTPQIPHTLPFRGTTPGPVFTETPGPHPQRNQGDGRHGTPWYPWTPPNPMTGPPALVFNNCSEVQIGNYNSLVAPPRTTASSSAKYDQAQFGRGRGWQPFHK
B2: mixed lineage kinase domain-like protein (protein, UniProt Q9D2Y4 1-472)
chain: MDKLGQIIKLGQLIYEQCEKMKYCRKQCQRLGNRVHGLLQPLQRLQAQGKKNLPDDITAALGRFDEVLKEANQQIEKFSKKSHIWKFVSVGNDKILFHEVNEKLRDVWEELLLLLQVYHWNTVSDVSQPASWQQEDRQDAEEDGNENMKVILMQLQISVEEINKTLKQCSLKPTQEIPQDLQIKEIPKEHLGPPWTKLKTSKMSTIYRGEYHRSPVTIKVFNNPQAESVGIVRFTFNDEIKTMKKFDSPNILRIFGICIDQTVKPPEFSIVMEYCELGTLRELLDREKDLTMSVRSLLVLRAARGLYRLHHSETLHRNISSSSFLVAGGYQVKLAGFELSKTQNSISRTAKSTKAERSSSTIYVSPERLKNPFCLYDIKAEIYSFGIVLWEIATGKIPFEGCDSKKIRELVAEDKKQEPVGQDCPELLREIINECRAHEPSQRPSVDGRSLSGRERILERLSAVEESTDKKV

Key:
[1] = target: T1, RIPK1 (mouse (endogenous in HT22)), …; assay: co-IP; HT22 cells transfected with vector or TauP301S for 48 h; lysed in NP-40 buffer; lysate incubated overnight with RIPK1 antibody, then Protein G-agarose 3 h; beads washed six times; immunoblot; conditions: remark: other sources report otherwise
[2] = target: T2, RIPK1 (mouse (endogenous in HT22)); assay: as above

Binder | binding [1] | binding [2]
B1 | binds | 
B2 |  | binds
